Reference: CN111499746A
Results are given in words; binding and its absence hold for the method and conditions named. Some results given as binding are weak or reduced against the parent protein; the word gives no strength.

Sequences of proteins named here, by UniProt entry; tags and fusion partners are left off. Residues count along the entry.
UniProt P60568, residues 21-153: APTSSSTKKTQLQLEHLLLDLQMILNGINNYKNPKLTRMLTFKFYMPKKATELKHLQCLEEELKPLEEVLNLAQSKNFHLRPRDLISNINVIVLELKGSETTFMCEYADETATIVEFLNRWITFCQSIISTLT

Key:
[1] = target: 重组人IL-2蛋白 (human) (UniProt P60568); experiment: sandwich ELISA specificity test, standard proteins at 10 ng/ml
[2] = target: PBMC经刺激之后分泌的内源性人IL-2蛋白 (human) (UniProt P60568); experiment: sandwich ELISA on supernatant of PBMC stimulated with PMA and PHA
[3] = target: 重组人IL-2蛋白 (human) (UniProt P60568); experiment: sandwich ELISA, A coated at 5 ug/ml as capture, biotinylated B at 5 ug/ml as detection, recombinant human IL-2 titrated

binding [1]: binds | binding [2]: binds | binding [3]: binds
B1: 抗人IL-2蛋白兔单克隆抗体A (antibody, V domains shown)
VH: QSVAESGGRLVTPGTPLTLTCTASGFSLTTYAMSWVRQAPGKGLEWIAIIYIDGTTYYGSWAKGRFTISKTSTTVDLRIISPTTEDTATYFCAKWYVGEMDLWGPGTLVTVSS
VL: DIVMTQTPASVEAAVGGTVTINCQASQSVYRDNYLAWYQQKPGQRPKLLIYGTSTLASGVSSRFKGSGSGTQFTLTISDLECADAATYYCQSYVYSSTIDNAFGGGTEVVVKG
